PubChem BioAssay AID1224826, NIAID – 2016
Shown is one part, drawn at random, of about 17,000 reagents tested. Of all reagents, about 1,110 (6.6%) are marked active. 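Active means lowered or raised reporter signal; replicate intensities are raw and not normalised per plate.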 Unmarked entries are inactive. Reagents against one gene are numbered here.

Screen: 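Regulators of Tlr4 signalling leading to Tnf-alpha expression in macrophages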 (primary screen)
System: RAW264.7 G9 macrophages from mouse bearing reporters for p65 (GFP) and the Tnf promoter (mCherry)
Reagents: siRNA pool against mouse genes, 100 nM
Time to read-out: 16 h of LPS stimulation, after 2 days of siRNA transfection
Challenge: bacterial lipopolysaccharide (Salmonella minnesota R595), 10 ng/ml
Measurement: 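Nuclear mCherry signal of the Tnf promoter reporter measured by imaging after background removal, scaled to each plate median and turned into robust z-scores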
Scale: Tnf reporter robust z-score: higher = stronger Tnf promoter reporter signal after LPS; Tnf reporter intensity: higher = stronger Tnf promoter reporter signal
Active means: 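Called active when robust z-score is at most -1.3, matching the median of the Tlr4 knock-down control, or over 3; control wells and wells with under 50 cells never active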
Meaning of the calls: active = Tnf reporter clearly lowered or raised; inactive = no clear change in Tnf reporter

gene symbol,reagent no.,Tnf reporter robust z-score,fewer than 50 cells in well,"Tnf reporter intensity, replicate 1","Tnf reporter intensity, replicate 2"
Xpo1,1,0.93,enough cells in well,300,305
Pdlim2,1,,fewer than 50 cells per well; well left out of calls,87.2,94.5
Pkia,1,,fewer than 50 cells per well; well left out of calls,125,101
Myom2,1,-0.38,enough cells in well,191,99
Czib,1,3.31 (active),enough cells in well,406,204
Krtap13-1,1,-0.35,enough cells in well,122,167
Pnp,1,-0.75,enough cells in well,208,122
Atp6v0e,1,-0.5,enough cells in well,138,141
Plxdc1,1,,fewer than 50 cells per well; well left out of calls,87.9,53.1
Casp9,1,-0.28,enough cells in well,123,159
Hmg20a,1,0.21,enough cells in well,212,239
Asb2,1,0.22,enough cells in well,147,186
Ecpas,1,-1.14,enough cells in well,112,129
Tnnt2,1,-0.63,enough cells in well,207,90.9
Ddx17,1,,fewer than 50 cells per well; well left out of calls,294,96.7
Cep19,1,0.71,enough cells in well,322,96.3
Or11q2,1,-0.35,enough cells in well,182,90.9
Cmtm7,1,1.3,enough cells in well,372,282
Rnase6,1,0.2,enough cells in well,123,150
Mgat4f,1,,fewer than 50 cells per well; well left out of calls,100,36.7
Ca3,1,-0.41,enough cells in well,127,171
Pfpl,1,0.14,enough cells in well,144,149
Tymp,1,1.2,enough cells in well,299,349
Mansc1,1,-0.31,enough cells in well,178,160
Slfn9,1,,fewer than 50 cells per well; well left out of calls,91.2,50.2
Sucla2,1,1.56,enough cells in well,112,142
Slc14a2,1,-0.47,enough cells in well,167,131
Usp50,1,0.2,enough cells in well,221,71.4
Trpt1,1,,fewer than 50 cells per well; well left out of calls,125,53.1
Mcpt4,1,-0.48,enough cells in well,161,49.3
Slc17a6,1,1.92,enough cells in well,176,157
B3galt4,1,-0.16,enough cells in well,161,157
Gm10101,1,1.77,enough cells in well,249,264
Napepld,1,0.52,enough cells in well,264,198
Tenm3,1,-0.27,enough cells in well,239,149
Angptl3,1,1.24,enough cells in well,214,269
Cpeb2,1,0.83,enough cells in well,279,180
Blzf1,1,1.46,enough cells in well,184,287
Usp33,1,0.65,enough cells in well,240,328
Pmis2,1,,fewer than 50 cells per well; well left out of calls,203,64.1
Ticam1,1,-0.94,enough cells in well,111,117
Bend5,1,,fewer than 50 cells per well; well left out of calls,131,73.4
Arhgef16,1,1.95,enough cells in well,281,278
Gne,1,0.15,enough cells in well,244,134
Sharpin,1,,fewer than 50 cells per well; well left out of calls,127,35.2
Zfp61,1,1.45,enough cells in well,188,182
Frs2,1,1.01,enough cells in well,307,350
Hs3st2,1,,fewer than 50 cells per well; well left out of calls,86.9,45.8
Six4,1,0.35,enough cells in well,329,227
Colec12,1,1.67,enough cells in well,315,248
Tpm2,1,0.54,enough cells in well,272,270
Gm5105,1,-1.23,enough cells in well,122,25.8
Mcm7,1,0.8,enough cells in well,433,179
Gab1,1,-0.92,enough cells in well,189,152
P2ry2,1,-1.64 (active),enough cells in well,142,67.6
Sgta,1,0.55,enough cells in well,96.1,146
Kcnk3,1,1.55,enough cells in well,316,265
Serf1,1,2.25,enough cells in well,145,213
Cables2,1,,fewer than 50 cells per well; well left out of calls,150,191
Tmem201,1,-0.1,enough cells in well,163,161
Art2b,1,2.1,enough cells in well,316,258
B3gnt9,1,0.88,enough cells in well,213,229
Cacng6,1,-0.3,enough cells in well,132,181
Scaf8,1,0.83,enough cells in well,179,149
Scaf8,2,-0.67,enough cells in well,137,114
Snrpa,1,,fewer than 50 cells per well; well left out of calls,66.8,37.7
Prl8a8,1,1.21,enough cells in well,173,192
Abca6,1,1.46,enough cells in well,356,234
Gtf2a1,1,-0.05,enough cells in well,266,219
Tpp1,1,3.8 (active),enough cells in well,576,462
Slc27a1,1,0.19,enough cells in well,111,104
Gpat4,1,-0.66,enough cells in well,138,123
Skic2,1,-0.69,enough cells in well,86.4,68.3
Pcdhga4,1,-0.65,enough cells in well,110,109
Ttc24,1,3.33 (active),enough cells in well,452,353

Just “Tnf reporter intensity, replicate 2”, for 7 of the entries above:
Hmg20a = 239
Asb2 = 186
Ecpas = 129
Tnnt2 = 90.9
Ddx17 = 96.7
Cep19 = 96.3
Or11q2 = 90.9
